Results: PubChem BioAssay AID1487 (National Center for Advancing Translational Sciences (NCATS), 2009)
Some of the results follow. The main result of the screen is listed elsewhere. These columns were measured beside it and carry no call. The list favours compounds with an active or inconclusive main result. The note in brackets gives the kind of curve behind each potency; many fits are weak.

Assay: qHTS Assay for Modulators of Lamin A Splicing
Details: HeLa LMNA splicing GFP/RFP minigene ratio, 48 h
Outline: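 S3 HeLa stable clones carrying a lamin A-EGFP splicing minigene plus DsRed2 were seeded at 600 cells/well in Opti-MEM with 2% FBS, pin-dosed and incubated 48 h at 37°C. Acumen cytometry (488 nm) gave the GFP/RFP total-intensity ratio.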

[1] = measured here: GFP splicing reporter channel
[2] = measured here: RFP viability control channel

Row | SMILES | AC50 [1] | AC50 [2]
1 | C=CCn1c(CCC(=O)Nc2ccc(C)c(Cl)c2)nnc1SCC(=O)Nc1ccccc1C | 22.4 µM [falling, single point] | 28.2 µM [falling, single point]
2 | COc1ccc(C(=O)C[n+]2ccccc2/C=N/O)cc1 |  | 0.158 µM [rising, full curve]
3 | O=C(COc1ccccc1Cl)Nc1ccc(Cl)cn1 |  | 6.31 µM [rising, single point]
4 | CCOc1cc(-c2noc(N)c2C#N)cc(OCC)c1OCC | 28.2 µM [falling, single point] | 35.5 µM [falling, single point]
5 | COc1ccccc1OCCCn1cc(C#N)c2ccccc21 | 7.94 µM [falling, partial curve, poor fit] | 12.6 µM [falling, single point]
6 | CCc1cc2cc(C)cc(C)c2nc1Cl | 0.0112 µM [rising, full curve, poor fit] | 
7 | O=C(CNc1ccc(Br)cc1)NNC1=NCCC1 |  | 12.6 µM [rising, single point]
8 | O=S(=O)(Nc1cc(F)ccc1F)c1ccc2[nH]c3c(c2c1)CCCC3 |  | 3.55 µM [rising, single point]
9 | CCn1ncc(Br)c1C(=O)N(C)C12CC3CC(CC(C3)C1)C2 | 17.8 µM [rising, single point] | 25.1 µM [rising, single point]
10 | C=CCN(c1ccc(C(=O)Nc2cccc([N+](=O)[O-])c2)cc1)S(C)(=O)=O |  | 25.1 µM [falling, partial curve, poor fit]
11 | Cc1ccc(C)c(-n2c(C)cc(/C=N/NC(=O)c3c(C)nc4cc(C)ccn34)c2C)c1 | 12.6 µM [rising, partial curve] | 15.8 µM [rising, single point]
12 | CC(C)(C)c1ccccc1NC(=S)NC1CCCCC1 |  | 0.0447 µM [falling, full curve, poor fit]
13 | COc1cc(/C=N/NC(=O)c2cccc(S(=O)(=O)N3CCCCC3)c2)cc(Br)c1O |  | 0.708 µM [rising, full curve, poor fit]
14 | COC(=O)CN1C(=S)N(Cc2ccccc2)C(=O)C1CC(=O)Nc1ccc(Br)cc1 (stereo not drawn) | 35.5 µM [falling, single point] | 35.5 µM [falling, single point]
15 | O=c1cc2c(nn1Cc1ccccc1)-c1ccccc1CC2 |  | 0.447 µM [falling, full curve, poor fit]
16 | Cc1ccc(COC(=O)CCc2nc3ccccc3c(=O)[nH]2)cc1 |  | 0.0282 µM [rising, full curve, poor fit]
17 | COc1ccccc1/C=N/NC(=O)C(=O)NCc1cccnc1 |  | 0.0355 µM [falling, full curve, poor fit]
18 | Cc1cc(C)cc(NC(=O)Cn2cc(S(=O)(=O)NC(C)(C)C)c(S(=O)(=O)NC(C)(C)C)c2)c1 |  | 15.8 µM [rising, single point]
19 | Cc1ccc(S(=O)(=O)Nc2cccc3ncccc23)s1 | 3.16 µM [rising, full curve, poor fit] | 12.6 µM [rising, partial curve]

Row | SMILES | AC50 [1] | AC50 [2]
20 | O=C1C2CCCN2C(c2ccc(F)cc2)N1c1ccc(Cl)cc1 (stereo not drawn) |  | 31.6 µM [rising, single point]
21 | CCOC(=O)NNC(=O)C12CC3CC(CC(C3)C1)C2 |  | 44.7 µM [falling, partial curve, poor fit]
22 | S=c1[nH]nc(-c2ccc(Cl)cc2)n1-c1ccc2c(c1)OCCO2 | 10 µM [rising, partial curve] | 12.6 µM [rising, partial curve]
23 | CCOc1ccc(Nc2oc(-c3ccco3)nc2C#N)cc1 |  | 11.2 µM [rising, partial curve]
24 | CCCC(=O)NC(c1ccc(OC)c(OC)c1)c1cc(Cl)c2cccnc2c1O (stereo not drawn) | 7.08 µM [falling, partial curve, poor fit] | 8.91 µM [falling, partial curve, poor fit]
25 | COc1cc2c(cc1NC(=O)CN(C)Cc1ccc(OC)c(OC)c1)oc1ccccc12 |  | 5.01 µM [rising, partial curve, poor fit]
26 | CN(C)CCNC(=O)COc1ccc(C23CC4CC(CC(C4)C2)C3)cc1 |  | 35.5 µM [rising, single point]
27 | O=C(Nc1nc2ccc3ccccc3c2s1)c1ccc(N2CCCCC2)c([N+](=O)[O-])c1 |  | 0.562 µM [rising, full curve, poor fit]
28 | O=C(O)/C=C/c1ccc2ccccc2n1 |  | 14.1 µM [rising, partial curve]
29 | COc1ccc(CCN=C(N)NS(=O)(=O)c2ccccc2)cc1 | 35.5 µM [rising, single point] | 35.5 µM [rising, single point]
30 | O=C(NCC1CCCO1)c1ccc(S(=O)(=O)N2CCC(c3nc4ccc(Cl)cc4[nH]3)CC2)cc1 (stereo not drawn) |  | 22.4 µM [rising, single point]
31 | O=c1[nH]c(N/N=C/c2ccc(O)cc2)nc2ccccc12 |  | 11.2 µM [rising, partial curve, poor fit]
32 | NS(=O)(=O)c1cccc(NC(=O)CSc2nn(-c3ccccc3)c(=S)s2)c1 | 20 µM [rising, single point] | 35.5 µM [rising, single point]
33 | CCOC(=O)c1oc2ccccc2c1CSc1nnnn1-c1ccc(C)cc1 | 35.5 µM [rising, single point] | 35.5 µM [rising, single point]
34 | c1ccn2c(CNc3ncnc4sccc34)nnc2c1 |  | 35.5 µM [rising, single point]
35 | COc1ccc(C2=Nc3ccc(Br)cc3C(c3ccccc3)N2CC(=O)NN)cc1 (stereo not drawn) |  | 31.6 µM [rising, single point]
36 | Cn1c(-c2ccccc2)c(C(=O)CC#N)c2ccccc21 | 0.794 µM [rising, full curve, poor fit] | 
37 | O=C1CCCc2c1[nH]c1ccc(Br)cc21 | 1.41 µM [falling, full curve] | 1.41 µM [falling, full curve]
38 | COc1cccc(-c2nccc(NCc3ccccc3OC)n2)c1 | 12.6 µM [falling, partial curve] | 12.6 µM [falling, partial curve]

Numbers 36 to 38 of the list above:
Row | SMILES | AC50 [1] | AC50 [2]
36 | Cn1c(-c2ccccc2)c(C(=O)CC#N)c2ccccc21 | 0.794 µM [rising, full curve, poor fit] | 
37 | O=C1CCCc2c1[nH]c1ccc(Br)cc21 | 1.41 µM [falling, full curve] | 1.41 µM [falling, full curve]
38 | COc1cccc(-c2nccc(NCc3ccccc3OC)n2)c1 | 12.6 µM [falling, partial curve] | 12.6 µM [falling, partial curve]

The listing continues.

Row | SMILES | AC50 [1] | AC50 [2]
39 | CCn1c(CN2CCC(C)CC2)nc2cc(NC(=O)COc3ccc([N+](=O)[O-])cc3)ccc21 | 10 µM [falling, partial curve] | 14.1 µM [falling, partial curve]
40 | Cc1cc(Cl)c(S(=O)(=O)NCC2CCCO2)cc1OCC(=O)NC1CCCCC1 (stereo not drawn) |  | 31.6 µM [rising, single point]
41 | CCOC(=O)C(C)Sc1nc(-c2ccccn2)ncc1OC (stereo not drawn) | 0.0316 µM [falling, full curve, poor fit] | 
42 | CC(C)CCNC1=CC(=O)CC(c2ccccc2)C1 (stereo not drawn) | 6.31 µM [falling, single point] | 4.47 µM [falling, partial curve, poor fit]
43 | Cc1n[nH]c(C)c1Cc1ccc(C(=O)O)cc1 | 3.16 µM [falling, full curve] | 3.55 µM [falling, full curve]
44 | O=c1c2c(nc3c(-c4ccc(Cl)cc4)c[nH]n13)CCCC2 |  | 3.98 µM [rising, full curve]
45 | COc1cccc(/C=N/N2C(=O)CSC2=S)c1O | 11.2 µM [falling, partial curve] | 11.2 µM [falling, partial curve]
46 | Cc1nc(NCCc2ccc(S(N)(=O)=O)cc2)c2c(C)c(C)sc2n1 |  | 7.94 µM [rising, partial curve]
47 | CCOC(=O)c1c(-c2ccc(C)cc2C)csc1NC(=O)CSc1nnnn1C |  | 14.1 µM [rising, partial curve]
48 | Cc1ccc(Sc2nnc(Cc3ccccc3)c3ccccc23)cc1 | 22.4 µM [falling, single point] | 
49 | COc1ccc(C2C=C(C34CC5CC(CC(C5)C3)C4)NC(=S)N2)cc1OC (stereo not drawn) |  | 11.2 µM [rising, partial curve]
50 | CCCCNC(=O)CSc1nc2ccccc2nc1Cc1ccc(Cl)cc1 | 1 µM [rising, partial curve] | 
51 | CC(C)C(=O)N1c2ccccc2NC2=C(C(=O)CCC2)C1c1ccc(N(C)C)cc1 (stereo not drawn) | 1.41 µM [falling, full curve, poor fit] | 0.178 µM [falling, full curve]
52 | COc1ccccc1CNc1ccnc(-c2ccccc2Cl)n1 | 15.8 µM [falling, partial curve, poor fit] | 
53 | CC(Sc1nnc2ccccn12)C(N)=O (stereo not drawn) |  | 11.2 µM [falling, single point]
54 | CCOc1ccccc1C1CC(c2ccc(Br)cc2)Nc2nc(N)nn21 (stereo not drawn) |  | 0.0398 µM [rising, full curve, poor fit]
55 | COc1cc(OC)c(NC(=O)Nc2ccccc2OCc2cc(=O)n3cc(C)ccc3n2)cc1Cl | 0.398 µM [rising, single point] | 0.794 µM [rising, single point]
56 | COCC(=O)Nc1ccc(OCc2ccccc2)cc1 | 7.08 µM [rising, partial curve, poor fit] | 
57 | COc1ccc(NC(=O)CN(C)S(=O)(=O)c2ccc3[nH]c4c(c3c2)CCCC4)cc1Cl | 25.1 µM [falling, partial curve] | 11.2 µM [falling, partial curve]
